The filed quantity is “Percent Effect” (%). How 0% and 100% were set is not recorded. Most values in the screen are low, and negative values occur. Compounds were drawn at random from those tested, without regard to their results.

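Whole-cell assay for inhibitors of Mycobacterium tuberculosis growth, labelled Cornell in the record; the read-out is not stated. The concentration is filed as 10 mM, unlikely as a test dose, so the dose is not known. The record gives no direction; compounds strong in two other growth screens of this library score well above the rest, so higher reads as stronger inhibition. About 53,000 compounds were tested under these conditions; 1.7% (about 900) showed 50% or more at least once.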

- Cc1ccc(C(=O)N(Cc2cccc(F)c2)C2CC2)c(=O)[nH]1 : 28.23%
- O[C@H]1Cc2ccccc2[C@H]1Nc1ncccc1C(F)(F)F : -11.37%
- CCc1nc(NC(=O)NCCc2scnc2C)nn1C : -8.952%
- COc1ccc(CSCC(O)CO)c(Cl)c1 (centres undefined) : -3.214%
- CCc1cc2cc(OC)c(OC)cc2nc1SCCN1CCCCC1.Cl : 8.209%
- CO[C@H]1CN(C(=O)OC(C)(C)C)CC1NCc1cc[nH]c1 (some centres undefined) : -17.13%
- Cc1cc(-c2nccs2)nc(C2CCN(Cc3ccc(F)cc3)CC2)n1.Cl : 21.54%
- Cc1ccc2c(c1)CCC21CCN(CCO)CC1 : 21.36%
- Cc1cnc(CN2CCN(C(C)c3nc(C)no3)CC2)cn1 (centres undefined) : -27.43%
- COc1ccc(C(=O)NCCCNc2ncccn2)c(OC)c1 : 8.679%
- Cc1ccc(C(=O)NCCC2CCN(C)CC2)cc1N(C)S(C)(=O)=O : -1.693%
- CCc1ncc(CNC2CC(=O)N(CCc3cccc(Cl)c3)C2)cn1 (centres undefined) : 33.39%
- O=C(COC1CCOC1)N(CC(F)F)c1cccc(Cl)c1 (centres undefined) : 0.9382%
- Cc1ccc(C(=O)N2CCC(n3cc(CO)nn3)CC2)cn1 : -28.54%
- O=C(O)C(F)(F)F.[H][C@@]12COC[C@@H](CC(=O)N3CCCC3)[C@]1([H])CN(Cc1ccc(F)cc1)C2 : -5.358%
- CC1(C)CC2(CCO1)NC(=O)c1cc(Br)ccc1-n1nnnc12 (centres undefined) : 19.83%
- CN(C)S(=O)(=O)N1CCOC(c2cccc(-c3cncnc3)n2)C1 (centres undefined) : 50.13%
- Cl.Cl.[H][C@@]12CCNCC1OCCN2Cc1ccccc1 (some centres undefined) : -22.07%
- O=C(O)C(F)(F)F.[H][C@]12CCN(C(C)=O)CC[C@@]1([H])S(=O)(=O)N(Cc1ccncc1)C2 : 13.25%
- CCn1c(C)cc(C(=O)N2C[C@@H](C(=O)O)[C@H](c3ccccc3)C2)c1C : -15.6%
- CN(C)CCNC(=O)c1ccc(S(=O)(=O)N[C@@H]2CCNC2)cc1 : 5.272%
- [H][C@@]12CN(C(=O)NCC)C[C@]1([H])OCC(=O)N2C : -8.49%
- Cc1cc(C)c(S(=O)(=O)NCCC(=O)NCc2ccoc2)c(C)c1 : 7.741%
- COc1cc(CCC(=O)NC2CCN(C)CC2)ccc1OCC(F)(F)F : -18.63%
- O=C(O)C(F)(F)F.[H][C@@]12COC[C@]1([H])[C@@H](OCC1CCOCC1)CN2Cc1nccs1 : -32.85%
- CC(NC(=O)C1=NN(C)C(=O)CC1)c1cccc(Cl)c1 (centres undefined) : 23.28%
- CSCC[C@@H](CO)n1ccnc1-c1ccc(C)o1 : 23.03%
- O=C1CCCN1Cc1ncn2c1CN(S(=O)(=O)c1cccs1)CCC2 : 24.14%
- CCc1cc(N2CCC(Nc3ccc(Cl)cn3)CC2)ncn1 : -7.313%
- COc1ccc(CN(C)[C@@H]2CN(C(=O)c3cccs3)C[C@H]2O)cc1 : -58.33%
- COCCOCC(=O)Nc1cccc(CN(C)C(C)=O)c1 : -13.91%
- CS(=O)(=O)N1CCc2sc(C(=O)NCc3ccncc3)cc21 : -38.14%
- Cc1cnn(CCCNC(=O)C2CCCCN2Cc2ccncc2)c1 (centres undefined) : -6.321%
- O=C(Cn1cc(-n2cccc2)cn1)NCC1CCC1 : 9.073%
- [H][C@]12CC[C@]([H])(CN(C(=O)c3ccc(C(C)=O)s3)C1)N(Cc1ccccc1)C2 : -9.865%
- Cc1ccc(Cl)cc1-n1nnnc1C1(N2CCCC2)CCCC1 : 10.15%
- Cn1c(Cn2ccnc2)nnc1C1CCN(C(=O)c2ccncc2)CC1 : 4.25%
- CCCn1nnc2c(sc3nc(N4CCOCC4)c4c(c32)CCC4)c1=O : 17.75%
- COc1ccc(OCCN(C)C(=O)c2ccc(OC)cc2O)cc1 : 6.82%
- CCC(C)NC(=O)CCc1ccnc2ccccc12 (centres undefined) : 18.49%
- Fc1cccc(CN2CCC(c3noc(-c4ccncc4)n3)CC2)c1F : 8.868%
- c1cncc(CNc2ncnc3c2CCN(Cc2ccsc2)CC3)c1 : -2.281%
- NCc1cccc(NC(=O)CCN2CCOCC2)c1 : 2.136%
- NCc1n[nH]c(-c2cccc(F)c2)n1 : 3.416%
- O=c1cc(-c2ccncc2)nc(-c2ccc(CN3CC[C@@H](O)C3)cc2)[nH]1 : -5.882%
- [H][C@@]12CN(Cc3ccccn3)C(=O)N1CCN(C1CCN(C(C)=O)CC1)C2 : 7.187%
- CC(=O)c1c(F)cccc1N1CCC(CS(N)(=O)=O)CC1 : 17.33%
- CCN1CC(C(=O)NCc2nn(CC)c3ccccc23)CCC1=O (centres undefined) : -5.87%

For reference, 4 entries once more:

- CCc1cc2cc(OC)c(OC)cc2nc1SCCN1CCCCC1.Cl : 8.209%
- CCN1CC(C(=O)NCc2nn(CC)c3ccccc23)CCC1=O (centres undefined) : -5.87%
- CS(=O)(=O)N1CCc2sc(C(=O)NCc3ccncc3)cc21 : -38.14%
- CC(NC(=O)C1=NN(C)C(=O)CC1)c1cccc(Cl)c1 (centres undefined) : 23.28%

From ChEMBL document CHEMBL3988442, “University of Dundee, Small-Polar-MMV Screening Library” (2021).